Values of other authors as cited in patent publication US20170143824A1 (Teva Pharmaceutical Industries, Ltd., priority 2013, published 2017).
At least one structure is not confirmed: it was looked up by name or label, or the drawing left a doubt.

What was measured:
[1] = test system: patients with MS; details: at one year
[2] = test system: patients with MS; details: two-year study, compared with placebo

CCCCCCCCc1ccc(CCC(N)(CO)CO)cc1 [Fingolimod, fingolimod]
reduction of relapses ([1]; 0.5 mg daily, compared with interferon beta-1a IM (Avonex)): 52% | number of new and newly enlarged T2 lesions on MRI scans [1]: 1.6 | reduction in relapse rate [2]: 54% | reduction in the risk of disability progression [2]: 30%
